From the supplement of paper PMC10735217 come the findings set out here.

The assay has as its system HEK293A TEAD-LUC reporter. Briefly: TEAD-luciferase reporter activity (YAP activation), robust Z score vs plate; higher = stronger YAP/TEAD activation. As to conditions: 24 h. (In general: Reporter assays use an easily measured gene product as a stand-in for the process of interest.)

Each structure is given as a SMILES string. The list shows a part of the results. This data set is noisy: repeats of one test often differ as much as different tests do.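 Human kidney-derived cells stably carry a construct in which eight TEAD-binding elements drive luciferase, measured by luminescence in a drug-repurposing library screen. A hit is any compound whose signal exceeds the plate mean by more than five robust Z scores.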

Take `CCCNCC(O)COc1ccccc1C(=O)CCc1ccccc1` (stereo unspecified) [propafe    SR]: where the note is “compound concentration: 2 uM”, the TEAD-luciferase reporter activity is inactive: -2.97.

Take `CCCNCC(O)COc1ccccc1C(=O)CCc1ccccc1` (stereo unspecified) [Rythmol]: the TEAD-luciferase reporter activity (compound concentration: 200 nM) was inactive: -0.57 and the TEAD-luciferase reporter activity (compound concentration: 10 uM) was inactive: -1.8.

On to `C[C@@H](O)[C@H](N)C(=O)N1CCC[C@H]1C(=O)N1CCC[C@H]1C(=O)N[C@H](C(N)=O)[C@@H](C)O`, for which the TEAD-luciferase reporter activity by setting is: (compound concentration: 200 nM) inactive: 0.274; (compound concentration: 10 uM) inactive: -0.182.

Regarding `C[C@@H](O)[C@H](N)C(=O)N1CCC[C@H]1C(=O)N1CCC[C@H]1C(=O)N[C@H](C(N)=O)[C@@H](C)O` [Rapastinel], where the note is “compound concentration: 2 uM”, the TEAD-luciferase reporter activity is inactive: -1.08.

Take `C[C@H](Oc1ccc(-c2nc(-c3ccc4[nH]cnc4c3)no2)cc1C(F)(F)F)C(F)(F)F`: the TEAD-luciferase reporter activity was inactive: -2.22 (compound concentration: 200 nM), inactive: 0.473 (compound concentration: 2 uM) and inactive: -0.528 (compound concentration: 10 uM).

With `C[C@H](C(=O)O)c1ccc2cc(OCc3ccc4ccccc4n3)ccc2c1`, the TEAD-luciferase reporter activity reads like this: (compound concentration: 200 nM) inactive: 1.77; (compound concentration: 2 uM) inactive: -0.336; (compound concentration: 10 uM) inactive: 3.69.

For the compound `O=C(O)[C@H](CC1CCC1)c1cc(Cl)c(OCC(F)(F)F)c(-c2ccc(C(F)(F)F)cc2)c1`, the TEAD-luciferase reporter activity (compound concentration: 200 nM) was inactive: 0.251, the TEAD-luciferase reporter activity (compound concentration: 2 uM) was inactive: 0.0239 and the TEAD-luciferase reporter activity (compound concentration: 10 uM) was inactive: 2.5.

Turning to `CCn1c(=O)cc(-c2cccc(Br)c2)c2ccc(C)nc21`, the TEAD-luciferase reporter activity was inactive: 4.19 (compound concentration: 200 nM), inactive: -0.435 (compound concentration: 2 uM) and inactive: -1.93 (compound concentration: 10 uM).

Consider `C=C[C@]1(C)C[C@@H](OC(=O)CS[C@@H]2C[C@H]3CC[C@@H](C2)N3C)[C@]2(C)[C@H](C)CC[C@]3(CCC(=O)[C@H]32)[C@@H](C)[C@@H]1O` [retapamulin], for which the TEAD-luciferase reporter activity is, setting by setting: (compound concentration: 200 nM) inactive: 0.059; (compound concentration: 2 uM) inactive: -0.515; (compound concentration: 10 uM) inactive: 1.87.

Take `CCN1CCN(C(=O)c2cnc3cc(C)nn3c2)CC1`: the TEAD-luciferase reporter activity reads like this: (compound concentration: 200 nM) inactive: -0.536; (compound concentration: 10 uM) inactive: -0.354.

As for `NC(=O)CC[C@H](NC(=O)Cc1ccccc1)C(=O)O` [antineoplaston AS2-5], the TEAD-luciferase reporter activity reads like this: (compound concentration: 200 nM) inactive: -1.34; (compound concentration: 2 uM) inactive: -0.169; (compound concentration: 10 uM) inactive: 0.528.

For `COc1cccc(C(=O)N2CC3(Cc4ccccc4N(C(C)=O)C3)C2)c1`, the TEAD-luciferase reporter activity by setting is: (compound concentration: 200 nM) inactive: 3.07; (compound concentration: 10 uM) inactive: -0.428.

Turning to `C#C[C@]1(O)CC[C@H]2[C@@H]3CCc4cc(O)ccc4[C@H]3CC[C@@]21C`, the TEAD-luciferase reporter activity (compound concentration: 200 nM) was inactive: 1.14 and the TEAD-luciferase reporter activity (compound concentration: 10 uM) was inactive: 0.852.

In the case of `C#C[C@]1(O)CC[C@H]2[C@@H]3CCc4cc(O)ccc4[C@H]3CC[C@@]21C` [ethinyl estradiol, Cassenne], the TEAD-luciferase reporter activity (compound concentration: 2 uM) is inactive: -1.12.

As for `CCN(CC)CCNC1c2cc(OC)ccc2OCc2ncccc21` (stereo unspecified), the TEAD-luciferase reporter activity is inactive: -1.51 (compound concentration: 200 nM), inactive: -0.0947 (compound concentration: 2 uM) and inactive: 1.56 (compound concentration: 10 uM).

On to `N[C@H](CCC(=O)N[C@@H](Cc1c[nH]c2ccccc12)C(=O)O)C(=O)O` [golotimod], for which the TEAD-luciferase reporter activity was inactive: -0.64 (compound concentration: 200 nM), inactive: -0.5 (compound concentration: 2 uM) and inactive: 0.636 (compound concentration: 10 uM).

On to `C[N+](C)(C)CCOP(=O)([O-])OCCCCCCCCCCCCCCCCCCc1ccc(I)cc1`, for which the TEAD-luciferase reporter activity runs as follows: (compound concentration: 200 nM) inactive: -1.08; (compound concentration: 2 uM) inactive: -1.15; (compound concentration: 10 uM) inactive: -0.974.

Turning to `CC(C)N1CC2CCC(C1)N2C(=O)c1ccc2c(c1)OCO2`, the TEAD-luciferase reporter activity was inactive: -0.404 (compound concentration: 200 nM) and inactive: -0.791 (compound concentration: 10 uM).

Turning to `O=C(NC1Cc2ccccc2C1)c1ccc(F)cc1`, the TEAD-luciferase reporter activity was inactive: 0.197 (compound concentration: 200 nM), inactive: -1.24 (compound concentration: 2 uM) and inactive: 3.62 (compound concentration: 10 uM).

As for `Cn1nnc(-c2ccc(-c3ccc(N4C[C@H](CO)OC4=O)cc3F)cn2)n1` [Tedizolid], the TEAD-luciferase reporter activity reads like this: (compound concentration: 200 nM) inactive: -1.12; (compound concentration: 2 uM) inactive: 1.97; (compound concentration: 10 uM) inactive: 1.49.

As to `CCCCCCOc1cc(C)c(O)c(C)c1C`, the TEAD-luciferase reporter activity runs as follows: (compound concentration: 200 nM) inactive: 1.98; (compound concentration: 2 uM) inactive: 0.0536; (compound concentration: 10 uM) inactive: -2.17.

In the case of `O=C(NC1Cc2ccccc2C1)c1ccc2c(c1)OC(F)(F)O2`, the TEAD-luciferase reporter activity by setting is: (compound concentration: 200 nM) inactive: 0.144; (compound concentration: 2 uM) inactive: 3.21; (compound concentration: 10 uM) active: 9.54.

As for `CC1(C)C[C@H]1C(=O)N/C(=C\CCCCSC[C@@H](N)C(=O)O)C(=O)O` [Cilastatin sodium], the TEAD-luciferase reporter activity is, setting by setting: (compound concentration: 200 nM) inactive: 0.00403; (compound concentration: 2 uM) inactive: 1.78; (compound concentration: 10 uM) inactive: 4.65.

Take `COc1cc(/C=C/C(=O)CC(=O)/C=C/c2ccc(O)c(OC)c2)ccc1O` [Curcumin]: the TEAD-luciferase reporter activity (compound concentration: 200 nM) is inactive: 0.0938, the TEAD-luciferase reporter activity (compound concentration: 2 uM) was inactive: -0.0105 and the TEAD-luciferase reporter activity (compound concentration: 10 uM) is inactive: 1.29.

As for `CN1C(=O)c2ccccc2C(C)(C)C1=O`, the TEAD-luciferase reporter activity reads like this: (compound concentration: 200 nM) inactive: 0.175; (compound concentration: 2 uM) inactive: -0.894; (compound concentration: 10 uM) inactive: -0.809.

With `CC#Cc1cn([C@@H]2O[C@H](CO)[C@@H](O)[C@H]2OC)c(=O)[nH]c1=O`, the TEAD-luciferase reporter activity is, setting by setting: (compound concentration: 200 nM) inactive: -0.105; (compound concentration: 2 uM) inactive: -0.0957; (compound concentration: 10 uM) inactive: 1.46.
